Reference: patent publication US20180320217A1, “METHODS FOR SAMPLING AND MEASURING ORAL LAVAGE PROTEINS” (The Procter & Gamble Company, priority 2017, published 2018)

Tested on: peptides in gingival brush samples
Test: Protein and peptide profiling of gingival brush samples (LC-MS/MS), TABLE 23
Format: in vivo, human
Conditions: for Mean CntlBsl (peptide abundance) / Mean CntlWk3 (peptide abundance) / Mean Cntl Bsl / Mean Cntl Wk3: control regimen; for Mean CntlBsl (peptide abundance) / Mean TrtBsl (peptide abundance) / Mean Cntl Bsl / Mean TrtBsl: baseline; for Mean CntlBsl (peptide abundance) / Mean CntlWk3 (peptide abundance) / Mean TrtBsl (peptide abundance) / Mean TrtWk3 (peptide abundance): pooled gingival brush samples, LC-MS/MS; for Mean CntlWk3 (peptide abundance) / Mean TrtWk3 (peptide abundance) / Mean Cntl Wk3 / Mean TrtWk3: week 3; for Mean TrtBsl (peptide abundance) / Mean TrtWk3 (peptide abundance) / Mean TrtBsl / Mean TrtWk3: treatment regimen; for Mean Cntl Bsl / Mean Cntl Wk3 / Mean TrtBsl / Mean TrtWk3: peptide abundance, gingival brush samples

B1: S10AG_HUMAN (protein, UniProt Q96FQ6 1-103, looked up)
Protein S100-A16: MSDCYTELEKAVIVLVENFYKYVSKYSLVKNKISKSSFREMLQKELNHMLSDTGNRKAADKLIQNLDANHDGRISFDEYWTLIGGITGPIAKLIHEQEQQSSS
  Mean CntlBsl (peptide abundance): 6388.6
  Mean CntlWk3 (peptide abundance): 10985.9
  Mean TrtBsl (peptide abundance): 8702.5
  Mean TrtWk3 (peptide abundance): 15985.5

B2: TGM3_HUMAN (protein, UniProt Q08188 2-467; Q08188 468-693, looked up)
Protein-glutamine … 1: AALGVQSINWQTAFNRQAHHTDKFSSQELILRRGQNFQVLMIMNKGLGSNERLEFIVSTGPYPSESAMTKAVFPLSNGSSGGWSAVLQASNGNTLTISISSPASAPIGRYTMALQIFSQGGISSVKLGTFILLFNPWLNVDSVFMGNHAEREEYVQEDAGIIFVGSTNRIGMIGWNFGQFEEDILSICLSILDRSLNFRRDAATDVASRNDPKYVGRVLSAMINSNDDNGVLAGNWSGTYTGGRDPRSWNGSVEILKNWKKSGFSPVRYGQCWVFAGTLNTALRSLGIPSRVITNFNSAHDTDRNLSVDVYYDPMGNPLDKGSDSVWNFHVWNEGWFVRSDLGPSYGGWQVLDATPQERSQGVFQCGPASVIGVREGDVQLNFDMPFIFAEVNADRITWLYDNTTGKQWKNSVNSHTIGRYISTKAVGSNARMDVTDKYKYPEGSDQERQVFQKALGKLKPNTPFA
Protein-glutamine … 2: ATSSMGLETEEQEPSIIGKLKVAGMLAVGKEVNLVLLLKNLSRDTKTVTVNMTAWTIIYNGTLVHEVWKDSATMSLDPEEEAEHPIKISYAQYEKYLKSDNMIRITAVCKVPDESEVVVERDIILDNPTLTLEVLNEARVRKPVNVQMLFSNPLDEPVRDCVLMVEGSGLLLGNLKIDVPTLGPKEGSRVRFDILPSRSGTKQLLADFSCNKFPAIKAMLSIDVAE
  Mean CntlBsl (peptide abundance): 31482.5
  Mean CntlWk3 (peptide abundance): 51193.2
  Mean TrtBsl (peptide abundance): 40923.6
  Mean TrtWk3 (peptide abundance): 70843.9

B3: PSA3_HUMAN (protein, UniProt P25788 2-255, looked up)
Proteasome subunit alpha …: SSIGTGYDLSASTFSPDGRVFQVEYAMKAVENSSTAIGIRCKDGVVFGVEKLVLSKLYEEGSNKRLFNVDRHVGMAVAGLLADARSLADIAREEASNFRSNFGYNIPLKHLADRVAMYVHAYTLYSAVRPFGCSFMLGSYSVNDGAQLYMIDPSGVSYGYWGCAIGKARQAAKTEIEKLQMKEMTCRDIVKEVAKIIYIVHDEVKDKAFELELSWVGELTNGRHEIVPKDIREEAEKYAKESLKEEDESDDDNM
  Mean Cntl Bsl: 4680.6
  Mean Cntl Wk3: 4309.5
  Mean TrtBsl: 2591.7
  Mean TrtWk3: 4133.7

B4: SETLP_HUMAN (protein, UniProt P0DME0 1-292, looked up)
Protein SETSIP: MAPKRQSPLPLQKKKPRPPPALGLEETSASAGLPKKGEKEQQEAIEHIDEVQNEIDRLNEQDSEEILKVEQKYNKLRQPFFQKRSELIAKIPNFGVTTFVNHPQVSSLLGEEDEEALHYLTKVEVTEFEDIKSGYRIDFYFDENPYFENKVFSKEFHLNESGDPSSKSTKIKWKSGKDVTKRSSQTQNKASRKRQHEEPESFFTWFTDHSDAGADELEEVIKDDIWPNPLQYYLVPDMDDEEGGEDDDDDDDDGDEGEEELEDIDEGDEDEGEEDEDDDEGEEGEEDEGEDD
  Mean CntlBsl (peptide abundance): 722.3
  Mean CntlWk3 (peptide abundance): 1133.6
  Mean TrtBsl (peptide abundance): 809.2
  Mean TrtWk3 (peptide abundance): 1620.6

B5: ZC12B_HUMAN (protein, UniProt Q5HYM0 1-836, looked up)
Probable ribonuclease ZC3H12B: MTATAEVETPKMEKSASKEEKQQPKQDSTEQGNADSEEWMSSESDPEQISLKSSDNSKSCQPRDGQLKKKEMHSKPHRQLCRSPCLDRPSFSQSSILQDGKLDLEKEYQAKMEFALKLGYAEEQIQSVLNKLGPESLINDVLAELVRLGNKGDSEGQINLSLLVPRGPSSREIASPELSLEDEIDNSDNLRPVVIDGSNVAMSHGNKEEFSCRGIQLAVDWFLDKGHKDITVFVPAWRKEQSRPDAPITDQDILRKLEKEKILVFTPSRRVQGRRVVCYDDRFIVKLAFDSDGIIVSNDNYRDLQVEKPEWKKFIEERLLMYSFVNDKFMPPDDPLGRHGPSLENFLRKRPIVPEHKKQPCPYGKKCTYGHKCKYYHPERANQPQRSVADELRISAKLSTVKTMSEGTLAKCGTGMSSAKGEITSEVKRVAPKRQSDPSIRSVAMEPEEWLSIARKPEASSVPSLVTALSVPTIPPPKSHAVGALNTRSASSPVPGSSHFPHQKASLEHMASMQYPPILVTNSHGTPISYAEQYPKFESMGDHGYYSMLGDFSKLNINSMHNREYYMAEVDRGVYARNPNLCSDSRVSHTRNDNYSSYNNVYLAVADTHPEGNLKLHRSASQNRLQPFPHGYHEALTRVQSYGPEDSKQGPHKQSVPHLALHAQHPSTGTRSSCPADYPMPPNIHPGATPQPGRALVMTRMDSISDSRLYESNPVRQRRPPLCREQHASWDPLPCTTDSYGYHSYPLSNSLMQPCYEPVMVRSVPEKMEQLWRNPWVGMCNDSREHMIPEHQYQTYKNLCNIFPSNIVLAVMEKNPHTADAQQLAALIVAKLRAAR
  Mean Cntl Bsl: 5903.5
  Mean Cntl Wk3: 1876.8
  Mean TrtBsl: 14702.2
  Mean TrtWk3: 1027.9

B6: RINI_HUMAN (protein, UniProt P13489 2-461, looked up)
Ribonuclease inhibitor: SLDIQSLDIQCEELSDARWAELLPLLQQCQVVRLDDCGLTEARCKDISSALRVNPALAELNLRSNELGDVGVHCVLQGLQTPSCKIQKLSLQNCCLTGAGCGVLSSTLRTLPTLQELHLSDNLLGDAGLQLLCEGLLDPQCRLEKLQLEYCSLSAASCEPLASVLRAKPDFKELTVSNNDINEAGVRVLCQGLKDSPCQLEALKLESCGVTSDNCRDLCGIVASKASLRELALGSNKLGDVGMAELCPGLLHPSSRLRTLWIWECGITAKGCGDLCRVLRAKESLKELSLAGNELGDEGARLLCETLLEPGCQLESLWVKSCSFTAACCSHFSSVLAQNRFLLELQISNNRLEDAGVRELCQGLGQPGSVLRVLWLADCDVSDSSCSSLAATLLANHSLRELDLSNNCLGDAGILQLVESVRQPGCLLEQLVLYDIYWSEEMEDRLQALEKDKPSLRVIS
  Mean CntlBsl (peptide abundance): 13042.9
  Mean CntlWk3 (peptide abundance): 15417.3
  Mean TrtBsl (peptide abundance): 5705.2
  Mean TrtWk3 (peptide abundance): 13521.2

B7: GDIR2_HUMAN (protein, UniProt P52566 2-201, looked up)
Rho GDP-dissociation …: TEKAPEPHVEEDDDDELDSKLNYKPPPQKSLKELQEMDKDDESLIKYKKTLLGDGPVVTDPKAPNVVVTRLTLVCESAPGPITMDLTGDLEALKKETIVLKEGSEYRVKIHFKVNRDIVSGLKYVQHTYRTGVKVDKATFMVGSYGPRPEEYEFLTPVEEAPKGMLARGTYHNKSFFTDDDKQDHLSWEWNLSIKKEWTE
  Mean CntlBsl (peptide abundance): 3520.1
  Mean CntlWk3 (peptide abundance): 2670.1
  Mean TrtBsl (peptide abundance): 5082.8
  Mean TrtWk3 (peptide abundance): 2536.9

B8: PSB6_HUMAN (protein, UniProt P28072 35-239, looked up)
Proteasome subunit beta type-6: TTIMAVQFDGGVVLGADSRTTTGSYIANRVTDKLTPIHDRIFCCRSGSAADTQAVADAVTYQLGFHSIELNEPPLVHTAASLFKEMCYRYREDLMAGIIIAGWDPQEGGQVYSVPMGGMMVRQSFAIGGSGSSYIYGYVDATYREGMTKEECLQFTANALALAMERDGSSGGVIRLAAIAESGVERQVLLGDQIPKFAVATLPPA
  Mean Cntl Bsl: 4537.9
  Mean Cntl Wk3: 4417.4
  Mean TrtBsl: 4184.4
  Mean TrtWk3: 5054.8

B9: GDIB_HUMAN (protein, UniProt P50395 1-445, looked up)
Rab GDP dissociation …: MNEEYDVIVLGTGLTECILSGIMSVNGKKVLHMDRNPYYGGESASITPLEDLYKRFKIPGSPPESMGRGRDWNVDLIPKFLMANGQLVKMLLYTEVTRYLDFKVTEGSFVYKGGKIYKVPSTEAEALASSLMGLFEKRRFRKFLVYVANFDEKDPRTFEGIDPKKTTMRDVYKKFDLGQDVIDFTGHALALYRTDDYLDQPCYETINRIKLYSESLARYGKSPYLYPLYGLGELPQGFARLSAIYGGTYMLNKPIEEIIVQNGKVIGVKSEGEIARCKQLICDPSYVKDRVEKVGQVIRVICILSHPIKNTNDANSCQIIIPQNQVNRKSDIYVCMISFAHNVAAQGKYIAIVSTTVETKEPEKEIRPALELLEPIEQKFVSISDLLVPKDLGTESQIFISRTYDATTHFETTCDDIKNIYKRMTGSEFDFEEMKRKKNDIYGED
  Mean CntlBsl (peptide abundance): 3885.3
  Mean CntlWk3 (peptide abundance): 5618.5
  Mean TrtBsl (peptide abundance): 4080.5
  Mean TrtWk3 (peptide abundance): 5987.0
